The data set concerns the target MUC1 (mucin 1) on the surface of MCF-7 cells (human (MCF-7 breast cancer cell line)) (UniProt P15941). The data set can be described thus: flow cytometry on cells. The conditions noted are these: 300 nM DNA, 5 mM Mg2+, higher on MUC1+ MCF-7 than on MUC1- HepG2; 100 mM NaCl, 5 mM MgCl2, pH 7.2, 300 nM DNA, 30 min; temperature not stated; protein on the cell surface; label: 5'-FITC; single-stranded DNA. (Flow cytometry measures light scatter and fluorescence of single cells or particles in a stream.)

Protein sequences, listed by entry. Tags and fused reporters are not part of them. Lines headed by an entry give the natural chain unless they say otherwise; changes in a name come on top.
UniProt P15941: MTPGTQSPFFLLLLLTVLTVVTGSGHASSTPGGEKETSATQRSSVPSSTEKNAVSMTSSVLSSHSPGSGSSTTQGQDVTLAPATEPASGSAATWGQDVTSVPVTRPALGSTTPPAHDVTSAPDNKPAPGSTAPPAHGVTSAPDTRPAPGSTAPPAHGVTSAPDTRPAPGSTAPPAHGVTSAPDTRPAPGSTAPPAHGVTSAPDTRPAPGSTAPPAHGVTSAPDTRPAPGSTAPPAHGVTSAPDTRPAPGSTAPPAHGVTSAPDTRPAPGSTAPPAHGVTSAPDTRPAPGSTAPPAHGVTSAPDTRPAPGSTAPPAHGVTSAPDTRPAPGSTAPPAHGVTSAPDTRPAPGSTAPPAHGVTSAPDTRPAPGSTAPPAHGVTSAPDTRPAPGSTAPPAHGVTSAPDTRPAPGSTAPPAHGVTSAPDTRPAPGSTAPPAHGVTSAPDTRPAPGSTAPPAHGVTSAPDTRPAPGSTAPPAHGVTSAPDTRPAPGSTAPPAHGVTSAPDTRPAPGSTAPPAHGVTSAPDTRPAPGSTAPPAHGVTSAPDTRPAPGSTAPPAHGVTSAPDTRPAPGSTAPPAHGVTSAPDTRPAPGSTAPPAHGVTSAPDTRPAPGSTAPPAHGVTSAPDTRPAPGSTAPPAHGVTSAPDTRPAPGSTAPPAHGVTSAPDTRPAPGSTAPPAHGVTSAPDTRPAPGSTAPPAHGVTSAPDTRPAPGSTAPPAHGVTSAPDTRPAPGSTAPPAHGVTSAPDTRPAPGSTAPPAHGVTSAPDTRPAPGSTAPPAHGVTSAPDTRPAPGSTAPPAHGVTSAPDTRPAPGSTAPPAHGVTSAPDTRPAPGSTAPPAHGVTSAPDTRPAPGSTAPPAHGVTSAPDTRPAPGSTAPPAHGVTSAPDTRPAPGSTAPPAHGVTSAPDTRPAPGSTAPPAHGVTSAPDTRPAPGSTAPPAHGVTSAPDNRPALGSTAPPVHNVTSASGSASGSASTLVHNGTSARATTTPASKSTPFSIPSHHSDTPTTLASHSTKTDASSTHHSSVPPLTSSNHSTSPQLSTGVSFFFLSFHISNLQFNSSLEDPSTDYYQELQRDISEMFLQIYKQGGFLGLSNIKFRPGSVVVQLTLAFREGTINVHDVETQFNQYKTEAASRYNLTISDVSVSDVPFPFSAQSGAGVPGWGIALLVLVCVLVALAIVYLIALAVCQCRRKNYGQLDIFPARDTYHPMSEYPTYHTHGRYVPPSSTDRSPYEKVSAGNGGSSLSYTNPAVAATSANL

For at least one entry, the source does not settle the construct or the ends of the probe. Results from cells or extracts need not show a direct contact.

In the case of “GCAGTTGATCCTTTGGATACCCTGG [MUC1 aptamer S2.2]”, the binding result is recorded as “binds”.

For the origin of these results see paper PMC3164674.
